Strings that start with PEPTIDE1 are HELM notation: dots part the residues, brackets hold end groups and non-standard residues.
Legend:
[1] = general procedure: peptide synthesis; TFFH (preactivation of LVFX for conjugation); details: conjugation step
[2] = peptide made by a vendor (peptide synthesis; TFFH (preactivation of LVFX for conjugation)); details: whole synthesis

Substance	conjugation yield [1]	final purity (method not given) [2]
PEPTIDE1{[LVFX].R.G.R.R.S.S.R.R.K.K.[am]}|CHEM1{[LVFX]}|CHEM2{[LVFX]}$PEPTIDE1,CHEM1,10:R3-1:R2|PEPTIDE1,CHEM2,11:R3-1:R2$$$V2.0	~87%	
PEPTIDE1{R.G.R.R.S.S.R.R.K.K.[am]}$$$$V2.0		≥95%
indolicidin		≥95%

From article PMC4166900 (Frontiers in Chemistry, 2014)
